PubChem BioAssay AID2685 (National Center for Advancing Translational Sciences (NCATS), 2010)
The other results are listed elsewhere or left out. The main result of the screen is listed elsewhere. These columns were measured beside it and carry no call. Compounds called inactive in the main read-out are mostly missing here. Potencies come from curve fits of mixed quality, noted in brackets.

Assay: qHTS Assay for Lipid Storage Modulators in Drosophila S3 Cells;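 for cell number change: cells counted by Cell Tracker Red CMTPX staining in the red channel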
Details: BODIPY lipid droplet fluorescence, 18-24 h; for cell number change: measured here: cell count max response, cells fed with added oleic acid
Outline: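 Laser-scanning cytometry quantifies lipid droplet accumulation (500–530 nm total intensity; droplet/cell object ratio) in oleic acid-fed (400 uM added) Drosophila S3 cells treated with a concentration series. 20 uM Triacsin C defined 100% inhibition.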

[1] = measured here: lipid fluorescence (Fed channel) AC50, cells fed with added oleic acid
[2] = measured here: cell number channel AC50, cells fed with added oleic acid

| SMILES | cell number change | AC50 [1] | AC50 [2] |
| --- | --- | --- | --- |
| COC(=O)C1=C(C)N(C)C(=S)N(C)C1c1cccc(Br)c1 (centres undefined) | -36.2% |  |  |
| Cc1ccc(C)c(S(=O)(=O)N2CCN(C(=O)CN3C(=O)C4CC=CCC4C3=O)CC2)c1 (centres undefined) |  | 11.6 µM [rising, single point] |  |
| NNC(=O)c1ccc(CN2C(=O)c3cccc4cccc2c34)cc1 | 55.3% | 10.3 µM [rising, partial curve] |  |
| Cc1nc(CNS(=O)(=O)c2ccc3ccccc3c2)cs1 | 50.6% | 11.6 µM [rising, partial curve] | 29.1 µM [rising, single point] |
| Cc1ccc2nc(Cl)c(/C=N/Nc3nc(C)cc(C)n3)c(=O)n2c1 | -3.29% | 25.9 µM [falling, single point] |  |
| Cc1ccc(NC(=O)c2ccco2)c(NC(=O)c2ccccc2C)c1 | -1.39% | 29.1 µM [rising, partial curve, poor fit] |  |
| Cc1ccc(/C=C/c2nc3ccccc3s2)s1 | -0.516% |  |  |
| O=[N+]([O-])c1cccc(-n2nnnc2CN2CCCC2)c1 | 15% | 2.91 µM [rising, full curve, poor fit] |  |
| COCCNC(=O)COC(=O)c1ccc(OCC(=O)Nc2ccccc2OC)c(OC)c1 | -152% | 29.1 µM [falling, single point] | 29.1 µM [falling, single point] |
| COC(=O)c1cc(NC(=O)CN2C(=O)C(=O)N(C3CCCC3)C2=O)cc(C(=O)OC)c1 | -2.33% | 20.6 µM [falling, single point] |  |
| CCOC(=O)c1cc(NC(=O)c2ccc(Cl)cc2)c(=O)n2c1oc1ccc(Cl)cc12 | -36.6% |  |  |
| COCCOC(=O)c1c(C)oc2ccc(NS(=O)(=O)c3ccc(C(=O)O)cc3)cc12 | -10.1% |  |  |
| CC(NC(=O)CN(C)Cc1cccc(F)c1)c1ccccc1 (centres undefined) | 48.6% | 0.58 µM [falling, single point] | 25.9 µM [rising, single point] |
| Cc1ccccc1N1CCN(C2=NC(=O)/C(=C\c3cccs3)S2)CC1 | 49.3% |  | 3.26 µM [rising, partial curve] |
| Cc1ccccc1C(=O)NNC(=O)C1CC(=O)N(c2ccc3c(c2)OCCO3)C1 (centres undefined) | 14.1% | 23.1 µM [rising, partial curve, poor fit] |  |
| CC(C)c1ccccc1NC(=O)C1CCCN(C(=O)c2ccc(Cl)cc2)C1 (centres undefined) | -19.7% |  |  |
| COC(=O)c1cc(Br)ccc1NC(=O)Nc1ccccc1 | 8.81% | 5.17 µM [rising, full curve, poor fit] |  |
| CC1N/C(=C\C(=O)c2ccccc2)N(O)C1(C)C (centres undefined) | -15% | 1.16 µM [falling, single point] |  |
| Cc1occc1C(=O)Nc1cc(S(=O)(=O)N2CCOCC2)ccc1OC(C)C | 3.48% | 29.1 µM [rising, single point] |  |

| SMILES | cell number change | AC50 [1] | AC50 [2] |
| --- | --- | --- | --- |
| CNc1ccc(C(=O)N2CCN(S(=O)(=O)c3ccc4c(c3)OCCCO4)CC2)cc1[N+](=O)[O-] | -16.3% | 29.1 µM [falling, single point] | 0.184 µM [rising, partial curve, poor fit] |
| CC(C(=O)Nc1ccc(F)cc1Cl)N(C)CCOc1ccccc1 (centres undefined) | 9.72% | 29.1 µM [falling, single point] |  |
| Cc1ccc(NS(=O)(=O)c2ccc(-c3csc(C)n3)s2)c(C)c1 | 37.6% | 0.517 µM [rising, full curve] | 6.51 µM [rising, full curve] |
| CCN1C(=NCc2ccc(OC)cc2)N[C@@H](c2ccccc2)C(C(=O)OC)=C1C | 21.3% | 32.6 µM [rising, partial curve, poor fit] |  |
| O=S(=O)(c1ccc(F)cc1)n1ccc(-c2cccc(OCc3ccc(Cl)cc3Cl)c2)n1 | 58.3% |  | 18.4 µM [rising, partial curve] |
| COc1cc(OC)c(-n2cc(-c3ccc(Cl)cc3)[nH]c2=O)cc1Cl | 4.03% | 23.1 µM [rising, single point] |  |
| CN1CCN(c2ccc(NC(=O)c3ccco3)cc2Cl)CC1 | 36.4% |  |  |
| CCN(CC(=O)Nc1ccc(NC(C)=O)cc1)C(=O)Cc1ccc(S(=O)(=O)N2CCOCC2)s1 | -2.56% | 2.91 µM [rising, single point] |  |
| O=S(=O)(c1ccccc1F)N1CCN(CC(O)c2ccccc2)CC1 (centres undefined) | 60% | 29.1 µM [rising, partial curve, poor fit] |  |
| O=C(C1CC1)N(CCN(Cc1ccccc1)C(=O)C1CC1)Cc1ccccc1 | -10.1% | 0.116 µM [rising, full curve, poor fit] |  |
| Cc1ccc(N2C(=O)CC(Nc3ccccc3)C2=O)cc1 (centres undefined) | -41.1% | 29.1 µM [falling, single point] | 3.66 µM [falling, full curve] |
| CCN(CC)C(=O)C1=C(C)NC(=O)NC1c1c(F)cccc1Cl (centres undefined) | -43.5% | 4.11 µM [falling, full curve] | 2.31 µM [falling, full curve] |
| Cc1ccc(OCC(=O)Nc2nnc(-c3ccco3)s2)cc1 | 13.9% | 23.1 µM [rising, partial curve, poor fit] |  |
| CNS(=O)(=O)c1ccc(C(=O)NCC(=O)NCC2COc3ccccc3O2)cc1 (centres undefined) | -3.23% | 18.4 µM [rising, single point] |  |
| Cc1cc(C(=O)NCCCN2CCOCC2)n(-c2ccccc2)n1 | -33.2% | 23.1 µM [falling, partial curve] | 8.2 µM [falling, single point] |
| CCN(c1ccccc1)S(=O)(=O)c1ccc(Cl)c(NC(=O)CSc2nncs2)c1 | -18% |  |  |
| CC(=O)Nc1ccc(Nc2ccc3c4c(cc(=O)n3C)-c3ccccc3C(=O)c24)cc1 | 41.9% |  | 18.4 µM [rising, single point] |
| COC(=O)CC1C(=O)NCCN1C(=O)c1cc([N+](=O)[O-])ccc1Cl (centres undefined) | -0.794% | 3.66 µM [falling, single point] |  |

Exported as labelled records: entries from further up
CCN1C(=NCc2ccc(OC)cc2)N[C@@H](c2ccccc2)C(C(=O)OC)=C1C
  cell number change: 21.3%
  AC50 [1]: 32.6 µM [rising, partial curve, poor fit]
O=C(C1CC1)N(CCN(Cc1ccccc1)C(=O)C1CC1)Cc1ccccc1
  cell number change: -10.1%
  AC50 [1]: 0.116 µM [rising, full curve, poor fit]
